Results published in patent US5422341A (Ohmeda Pharmaceutical Products Division Inc., priority 1993, dated 1995).
For part of these data: Some peptides are written in HELM: one residue between dots, names in brackets for other building blocks, links after the first $.

What was measured:
[1] = general procedure: Fmoc solid-phase peptide synthesis in flow; FMOC-L-Gln-(Mbh) PepSynKA resin; Fmoc amino acid Pfp esters with HOBt (Thr as ODhbt ester); details: whole synthesis, scale 0.2 mmole, Bis-trifluoroacetate salt
[2] = general procedure: Fmoc solid-phase peptide synthesis in flow; NovaSynPR 500 resin; Fmoc-L-Gln(Mbh) PepSyn KA resin; PAL resin; Fmoc amino acid Pfp esters with HOBt (Thr as ODhbt ester); details: whole synthesis; for final HPLC purity: 214 nm; for final HPLC purity / isolated yield: scale of the general procedure 0.2 mmole
[3] = general procedure: Fmoc solid-phase peptide synthesis in flow; Fmoc-L-Gln(Mbh)PepSyn KA resin; Fmoc amino acid Pfp esters with HOBt (Thr as ODhbt ester); details: whole synthesis, trifluoroacetate salt
[4] = general procedure: Fmoc solid-phase peptide synthesis in flow; PAL resin; Fmoc amino acid Pfp esters with HOBt (Thr as ODhbt ester); details: whole synthesis, trifluoroacetate salt
[5] = scale of the general procedure 0.2 mmole

| Substance | isolated mass [1] [mg] | final purity (method not given) ([2]; analytical HPLC (214 nm) and capillary zone electrophoresis, scale 0.2 mmole, trifluoroacetate salt) [%] | crude yield [3, 5] [%] | crude mass [3] [mg] | final HPLC purity ([2]; trifluoroacetate salt) [%] | isolated mass ([2]; Bis-trifluoroacetate salt) [mg] | isolated yield ([2]; trifluoroacetate salt) [%] | crude yield [4, 5] [%] | crude mass [4] [mg] | isolated mass ([2]; Tris-trifluoroacetate salt) [mg] |
| --- | --- | --- | --- | --- | --- | --- | --- | --- | --- | --- |
| (Me3 N^+)-Phe-Val-Pro-Ile-Phe-Thr-Tyr-Gly-Glu-Leu-Gln-Arg-Leu-Gln-OH | 71 | >95 | – | – | – | – | – | – | – | – |
| PEPTIDE1{F.V.P.I.F.T.Y.G.E.L.Q.[dR].L.Q}$$$$V2.0 | – | – | 85 | 320 | >95 | 107 | 28 | – | – | – |
| PEPTIDE1{[MeF].V.A.I.F.T.Y.G.E.L.A.[dR].L.[dK].[am]}$$$$V2.0 | – | – | – | – | >95 | – | 36 | 91 | 210 | 82 |
